The assay has as its target porcine pancreatic elastase (porcine) (UniProt P00772). The assay is described as follows: enzyme inhibition assay (chromogenic substrate), inhibition against inhibitor concentration; chymotrypsin or elastase 100 nM incubated with 0 to 40000 nM rSdPI for 30 min; as for trypsin, with the relevant chromogenic substrates; both purified.

Sequences of proteins named here, by UniProt entry; tags and fusion partners are left off. Residues count along the entry.
UniProt P00772, residues 27-266: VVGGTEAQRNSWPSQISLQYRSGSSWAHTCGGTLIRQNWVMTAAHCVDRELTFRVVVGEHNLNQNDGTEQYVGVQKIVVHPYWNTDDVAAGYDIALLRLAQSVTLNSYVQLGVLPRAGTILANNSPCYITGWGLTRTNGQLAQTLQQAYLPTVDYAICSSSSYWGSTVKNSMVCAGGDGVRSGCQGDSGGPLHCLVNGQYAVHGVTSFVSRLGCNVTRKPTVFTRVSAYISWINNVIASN

No constants are given. Whether binding was seen depends on the method and setting.

B1: recombinant SdPI peptide (scorpion-derived protease inhibitor), wild type (peptide, UniProt P0DJ45 22-80)
chain: KNKCQLPSDVGKGKASFTRYYYNEEGGKCETFIYGGVGGNSNNFLTKEDCCRECAQGSC
With B1, the binding result is reported as “no binding (tested: 40000 nM)”.

Source of the values: PMC3210814.
